Measurements reported in PubChem BioAssay AID1259281 (Sanger Institute, 2017).
This is an unselected part of 794 reagents tested. In the full data, 22 (2.8%) were called active. 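Calls rest on knock-down alone only; drug synergy scores play no part in them.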 Unmarked entries are inactive. Not all columns of the deposit are shown. The record does not give: the amount of reagent, the time to read-out.

- Purpose: 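Screen kinases and frequently colorectal-mutated genes for lethal knock-downs and drug partners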 (primary screen)
- Cell system: human COLO678 colorectal cancer cell line
- Reagent: siRNA pool against human genes
- Conditions: anchor drugs at fixed doses: BYL719 1 µM, cetuximab 5 µg/ml or trametinib 10 nM; DMSO vehicle for the siRNA-alone arm
- Detection: 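Cell viability compared with non-targeting pool wells, averaged over replicates; knock-down-alone effect also as robust z-score; synergy scores set knock-down plus drug against expected joint effect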
- Reading the numbers: robust z-score, siRNA alone: higher = more viable cells; strongly negative means essential
- Rule for the call: 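Called essential (knock-down alone) if knock-down by itself drops cell number to a robust z-score under -3; all others no change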
- Calls: active = essential (knock-down alone); inactive = no change

How did the screen score EFNA4?
robust z-score, siRNA alone: 0.473

What did the screen give for PHKA2?
robust z-score, siRNA alone: 0.473

For MAK, what does the deposit list?
robust z-score, siRNA alone: 0.473

What is on record for TAOK1?
robust z-score, siRNA alone: -0.58

For PDGFRB, what does the deposit list?
robust z-score, siRNA alone: -0.958

For CAMKK1, what does the deposit list?
robust z-score, siRNA alone: 0.473

What is on record for CSK?
robust z-score, siRNA alone: 0.473

How did the screen score SIK3?
robust z-score, siRNA alone: 0.473

With DCK, how do the results read?
robust z-score, siRNA alone: 0.0954

For SRP72, what does the deposit list?
robust z-score, siRNA alone: 0.473

What is on record for STK24?
robust z-score, siRNA alone: 0.473

For LIMK2, what does the deposit list?
robust z-score, siRNA alone: 0.473

With NEK1, how do the results read?
robust z-score, siRNA alone: 0.473

For RIPK1, how do the results read?
robust z-score, siRNA alone: 0.473

What did the screen give for ITPKB?
robust z-score, siRNA alone: 0.0776

How did the screen score PRKDC?
robust z-score, siRNA alone: -0.202

What is on record for PSKH2?
robust z-score, siRNA alone: 0.473

With AKAP9, what does the deposit list?
robust z-score, siRNA alone: -1.55

Which result is listed for PIP5K1B?
robust z-score, siRNA alone: 0.473

With WT1, what does the deposit list?
robust z-score, siRNA alone: -2.4

Which result is listed for PRKD3?
robust z-score, siRNA alone: 0.458

How did the screen score EXOSC10?
robust z-score, siRNA alone: -0.861

Which result is listed for NEK8?
robust z-score, siRNA alone: -0.138

For MPP2, how do the results read?
robust z-score, siRNA alone: 0.473

What did the screen give for TJP2?
robust z-score, siRNA alone: 0.473

Which result is listed for CHKB?
robust z-score, siRNA alone: 0.473

How did the screen score CDK1?
robust z-score, siRNA alone: 0.473

For MAPK8, what does the deposit list?
robust z-score, siRNA alone: 0.473

Copied from above (4 entries):
TAOK1 → robust z-score, siRNA alone: -0.58
PDGFRB → robust z-score, siRNA alone: -0.958
CAMKK1 → robust z-score, siRNA alone: 0.473
CSK → robust z-score, siRNA alone: 0.473
